Test results published in patent US9920033B2, “Crystalline form of a substituted quinoline compound and pharmaceutical compositions thereof” (Sunshine Lake Pharma Co., Ltd., priority 2015, dated 2018).
Some entries share one result that the patent states for a list of compounds.

Test: Stability test (impurity contents by HPLC)
Type: physicochemical
Details: high temperature, high humidity and room temperature
Procedure: A sample of crystalline form A of compound (I) (100˜200 mg) was placed on a watching glass in the form of a thin layer (thickness ≤5 mm). The samples were exposed to the following conditions: high temperature (60±2° C.) for 10 days; high humidity (25±2° C., 90%±5% relative humidity) for 10 days; illumination condition (visible light 4500 lx±500 lx with ultraviolet light not lower than 0.7 W·h/m^2, 25±2° C., 60%±5% relative humidity) for 10 days; and room temperature (30±2° C., 65%±5% relative humidity) for 10 days, respectively. The impurity contents in the samples were determined at different time points (0, 5 and 10 days) by high performance liquid chromatography (HPLC), and the absorption peaks were normalized relative to the highest peak (corresponds to compound I) which is set to 100%.

SMILES | Time for which the sample was stable
Cc1c(C(=O)Nc2ccc(Oc3ccnc4cc(OCC(C)(C)O)ccc34)c(F)c2)c(=O)n(-c2ccccc2)n1C.Cc1ccc(S(=O)(=O)O)cc1 [Amorphous, N-(3-fluoro-4-((7-(2-hydroxy-2-methylpropoxy)quinolin-4-yl)oxy)phenyl)-1,5-dimethyl-3-oxo-2-phenyl-2,3-dihydro-1H-pyrazole-4-carboxamide p-toluenesulfonate] | at least 10 days
Cc1c(C(=O)Nc2ccc(Oc3ccnc4cc(OCC(C)(C)O)ccc34)c(F)c2)c(=O)n(-c2ccccc2)n1C.Cc1ccc(S(=O)(=O)O)cc1 [Form A, N-(3-fluoro-4-((7-(2-hydroxy-2-methylpropoxy)quinolin-4-yl)oxy)phenyl)-1,5-dimethyl-3-oxo-2-phenyl-2,3-dihydro-1H-pyrazole-4-carboxamide p-toluenesulfonate] | at least 10 days
